Laboratory results: PubChem BioAssay AID1508597 (Cure First, 2020)

Aim: 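Genes whose silencing sensitises or protects ovarian cancer cells against rucaparib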 (primary screen)
System: human ovarian carcinoma lines grown from tumours: OCI-P5x (papillary serous) and OCI-C5x (clear cell)
Reagents: siRNA pool against human genes, 1.25 pmol siRNA per well
Timing: 72 h or 96 h, depending on the cell culture
Treatment: rucaparib 20 µM (about IC30) or vehicle, present until read-out
Rucaparib or vehicle: Rucaparib
Cell line: OCI-P5x (serous)
Measured: 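ATP luminescence measured at 72 or 96 h according to the culture, then normalised and expressed as percent viability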
Scale: viability, normalised: higher = more viable cells remaining
Hit rule: 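a well counts as a hit if its normalised viability is under 80 percent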
Meaning of the calls: active = viability under 80%; inactive = viability 80% or more
Shown is an unselected part of the about 2,100 reagents, in one setting of the screen. 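Calls flag viability under 80% in either arm, not effects specific to rucaparib; the reference for percent is not stated.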 Some reagents were tested in more than one well and are listed for each. Not given: the 100% reference.

target	technical replicate	viability, normalised (%)	call
BCL2L1	1	67.3	active
BCL2L1	1	73	active
BCL2L1	2	80.9	inactive
BCL2L1	2	79.7	active
BCL2L1	3	66.7	active
BCL2L1	3	89.5	inactive
CAMK1	1	90	inactive
CAMK1	2	87.4	inactive
CAMK1	3	86.1	inactive
PHIP	1	48.8	active
PHIP	2	38.8	active
PHIP	3	49.5	active
PHKG1	1	44.3	active
PHKG1	2	48.9	active
PHKG1	3	47.8	active
SP3	1	46.2	active
SP3	2	47.1	active
SP3	3	55.5	active
RIF1	1	70.8	active
RIF1	2	83.9	inactive
RIF1	3	90.7	inactive
CLDN14	1	62.7	active
CLDN14	2	76.3	active
CLDN14	3	71.2	active
DCLK2	1	80.5	inactive
DCLK2	2	89.4	inactive
DCLK2	3	83.9	inactive
PCDHB13	1	30	active
PCDHB13	2	22.1	active
PCDHB13	3	29.5	active
HERC2	1	161	inactive
HERC2	1	76.7	active
HERC2	2	172	inactive
HERC2	2	65	active
HERC2	3	125	inactive
HERC2	3	73.3	active
MAPK7	1	118	inactive
MAPK7	2	111	inactive
MAPK7	3	97.1	inactive
RPL3	1	50.8	active
RPL3	2	54.4	active
RPL3	3	55.3	active
MTHFR	1	77.4	active
MTHFR	2	79.8	active
MTHFR	3	70.6	active
FECH	1	56	active
FECH	2	77.3	active
FECH	3	70.7	active
ARL8B	1	67.9	active
ARL8B	2	77.7	active
ARL8B	3	79	active
APOA2	1	41.9	active
APOA2	2	61.1	active
APOA2	3	40.6	active
WDR82	1	76.3	active
WDR82	2	89	inactive
WDR82	3	67.6	active

Records listed so far whose gene name starts with R or r:
target	technical replicate	viability, normalised (%)	call
RIF1	1	70.8	active
RIF1	2	83.9	inactive
RIF1	3	90.7	inactive
RPL3	1	50.8	active
RPL3	2	54.4	active
RPL3	3	55.3	active
